Results as given in US20020025929A1, “METHOD OF BUILDING AND MAINTAINING BONE” (priority 1997, published 2002).

Test: Body weight of ovariectomized rats
Assay type: in vivo, Sprague-Dawley female rats
Conditions: compound 1a 0.03-3 mg/kg, EE2, PTH (1-34) 10 μg/kg alone or in combination with compound 1a
Protocol: In the first study, six-month old virgin Sprague-Dawley female rats weighing about 300 g each were maintained on a 12 hr light/12 hr dark cycle at 22° C. with ad lib access to food (TD 89222 diet containing 0.5% calcium and 0.4% phosphorus, Teklad, Madison, Wis., USA), Except for sham-operated control animals, bilateral ovariectomies were performed on the test animals. In the case of the sham-operated animals, the surgical ovariectomization technique was followed, but the ovaries were left intact to provide a control for assessing any effect which might be due to the surgical trauma.
The ovariectomized (OVX) animals were randomized and permitted to lose bone for one month before beginning treatment for the following three months.
The animal groups included: sham-operated animals(SHAM, n=8); bilaterally ovariectomized animals (OVX, n=7); bilaterally ovariectomized animals treated with 17α-ethynyl estradiol (Sigma Fine Chemicals, St. Louis, Mo., USA) dosed orally at a level of 0.1 mg/kg/day (n=7); and bilaterally ovariectomized animals treated with compound 1a at levels of 0.003, 0.03. 0.3 or 3 mg/kg/day, respectively, dosed orally (n=8 in each group).
SHAM and OVX control animals were orally dosed by gavage with the vehicle or 1 mL/kg of body weight of 20% hydroxypropyl-β-cyclodextrin (Aldrich Chemical Co., Milwaukee, Wis., USA). Estrogen-treated control animals were administered 0.1 mg/kg/day of 17α-ethynyl estradiol by gavage. Animals treated with various doses of 1a were administered the appropriate dose by gavage in 1 mL/kg of body weight of 20% cyclodextrin.

Compound	body weight compared to OVX and Sham
COc1ccc(-c2sc3cc(O)ccc3c2Oc2ccc(OCCN3CCCCC3)cc2)cc1 [Compound 1a, 6-hydroxy-2-(4-methoxyphenyl)-3-[4-(2-piperidin-1-ylethoxy)phenoxy]-benzo[b]thiophene]	no effect on body weight compared to OVX
C#C[C@]1(O)CC[C@H]2[C@@H]3CCc4cc(O)ccc4[C@H]3CC[C@@]21C [EE2, 17α-ethynyl estradiol]	lowered body weight below OVX to Sham levels
PTH: N-terminal 1-34 fragment of human parathyroid hormone, hPTH(1-34, Sequence ID No. 3); PTH/vehicle = 45 days PTH then vehicle	little effect compared to OVX
